# From patent US20260043793A1, “MICROFLUIDIC CELL SPHEROIDS AND ORGANOIDS CULTURE INSERT FOR DISEASE MODELING AND SCREENING OF THERAPEUTICS” (APRICELL BIOTECHNOLOGY INC., priority 2022, published 2026)
# At least one compound was matched to its structure with a doubt left.
# Key:
# Type in all cases: cell-based
# [1] = tested on: HIF-1α; experiment: HIF-1α immunohistochemistry of U251 spheroid slices after DFO treatment; details: 50nM DFO, both normaxia and hypoxia conditions
# [2] = tested on: TMZ non-resistant U251 cell spheroids or organoids; experiment: Growth and invasion of TMZ non-resistant U251 spheroids in Collagen/HA ECM conditioned with Reelin; details: increasing amounts of TMZ, matrix with 0 and 10 nM Reelin
# Experimental: (§1) To investigate and compare the invasive behavior of TMZ resistant GBM cancer cells with non-resistant cell spheroids or organoids through the ECM hydrogel, we used TMZ resistant and non-resistant U251 cell lines to make cell spheroids or organoids in the device 10 or the sector 20. The method of U251 cell spheroids or organoid formation was similar to that disclosed above.
# (§2) The effect of recombinant Reelin on viability of the U251 cell spheroids or organoids was studied. It was tested with 2 different concentrations of Reelin (1 and 100 nM) on cell spheroids or organoids in the device 10 or the sector 20. Moreover, to study the invasive behavior of the resistant and non-resistant cell spheroids or organoids, they were embedded in Collagen/HA hydrogel. The method of cell spheroids or organoid embedding in the hydrogel is similar to that disclosed in example 1. In this study, the effect of Reelin protein in combination with ECM hydrogel on invasiveness of the cell spheroids or organoids and their invasion length using Vimentin immunostaining and florescent microscopy respectively was studied.
# [3] = tested on: U251 cell spheroids or organoids; experiment: Drug testing against U251 cell spheroids or organoids in collagen/hyaluronic acid ECM (invasion length, viability)
# [4] = tested on: TMZ resistant U251 cell spheroids or organoids; experiment: Growth and invasion of TMZ resistant U251 spheroids in Collagen/HA ECM conditioned with Reelin; details: increasing amounts of TMZ, matrix with 0 and 10 nM Reelin
# Experimental: as §1, §2
Structure (SMILES),fluorescent intensity of the HIF-1 protein expression [1],length of invasion [2],"invasion length of the tumor cells within the ECM hydrogel ([3]; TMZ 250 and 500 μM, 4 day-old spheroids, 3 days treatment)","growth and invasion of the tumor cells within the ECM hydrogel ([3]; increasing drug concentration (250, 500 μM))",length of invasion [4]
"CC(=O)N(O)CCCCCNC(=O)CCC(=O)N(O)CCCCCNC(=O)CCC(=O)N(O)CCCCCN [DFO, Deferoxamine]",increase in fluorescent intensity,–,–,–,–
"Cn1nnc2c(C(N)=O)ncn2c1=O [Temozolomide, reference compound]",–,significant decrease in the length of invasion,decrease in invasion length,inhibited growth and invasion,significant decrease in the length of invasion
